# From the supplement of paper PMC12067093, “Discovery and optimisation of a covalent ligand for TRIM25 and its application to targeted protein ubiquitination” (Chemical Science, 2025)
# The chains behind the UniProt entries cited, without tags or fusion partners. Where a name states a change or a piece, a line headed by the entry shows the natural chain unless it says otherwise.
# UniProt O43592: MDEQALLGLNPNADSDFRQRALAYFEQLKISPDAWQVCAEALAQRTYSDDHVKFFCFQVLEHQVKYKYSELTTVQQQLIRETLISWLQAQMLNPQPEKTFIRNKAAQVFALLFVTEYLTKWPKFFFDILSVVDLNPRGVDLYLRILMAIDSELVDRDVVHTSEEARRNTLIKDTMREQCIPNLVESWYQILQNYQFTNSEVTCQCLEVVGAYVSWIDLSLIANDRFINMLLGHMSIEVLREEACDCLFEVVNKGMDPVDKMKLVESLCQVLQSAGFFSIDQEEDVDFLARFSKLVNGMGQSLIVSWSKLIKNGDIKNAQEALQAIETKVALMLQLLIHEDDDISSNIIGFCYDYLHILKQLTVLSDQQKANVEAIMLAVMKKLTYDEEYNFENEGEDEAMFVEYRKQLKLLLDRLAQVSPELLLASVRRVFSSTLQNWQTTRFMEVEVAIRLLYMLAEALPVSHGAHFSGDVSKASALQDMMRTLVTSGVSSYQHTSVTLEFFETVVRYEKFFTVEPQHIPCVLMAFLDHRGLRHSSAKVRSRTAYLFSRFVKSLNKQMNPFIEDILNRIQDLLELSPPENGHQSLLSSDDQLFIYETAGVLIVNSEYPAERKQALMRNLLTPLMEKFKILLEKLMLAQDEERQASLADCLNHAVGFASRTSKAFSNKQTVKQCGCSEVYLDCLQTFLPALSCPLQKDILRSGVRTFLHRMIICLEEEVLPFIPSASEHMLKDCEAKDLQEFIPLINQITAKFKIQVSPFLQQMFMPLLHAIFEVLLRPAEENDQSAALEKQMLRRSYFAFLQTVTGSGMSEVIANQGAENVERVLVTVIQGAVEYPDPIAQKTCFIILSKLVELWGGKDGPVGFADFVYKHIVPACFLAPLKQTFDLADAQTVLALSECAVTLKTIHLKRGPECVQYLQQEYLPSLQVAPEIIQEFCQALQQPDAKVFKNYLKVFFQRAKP
# UniProt Q9UGR2: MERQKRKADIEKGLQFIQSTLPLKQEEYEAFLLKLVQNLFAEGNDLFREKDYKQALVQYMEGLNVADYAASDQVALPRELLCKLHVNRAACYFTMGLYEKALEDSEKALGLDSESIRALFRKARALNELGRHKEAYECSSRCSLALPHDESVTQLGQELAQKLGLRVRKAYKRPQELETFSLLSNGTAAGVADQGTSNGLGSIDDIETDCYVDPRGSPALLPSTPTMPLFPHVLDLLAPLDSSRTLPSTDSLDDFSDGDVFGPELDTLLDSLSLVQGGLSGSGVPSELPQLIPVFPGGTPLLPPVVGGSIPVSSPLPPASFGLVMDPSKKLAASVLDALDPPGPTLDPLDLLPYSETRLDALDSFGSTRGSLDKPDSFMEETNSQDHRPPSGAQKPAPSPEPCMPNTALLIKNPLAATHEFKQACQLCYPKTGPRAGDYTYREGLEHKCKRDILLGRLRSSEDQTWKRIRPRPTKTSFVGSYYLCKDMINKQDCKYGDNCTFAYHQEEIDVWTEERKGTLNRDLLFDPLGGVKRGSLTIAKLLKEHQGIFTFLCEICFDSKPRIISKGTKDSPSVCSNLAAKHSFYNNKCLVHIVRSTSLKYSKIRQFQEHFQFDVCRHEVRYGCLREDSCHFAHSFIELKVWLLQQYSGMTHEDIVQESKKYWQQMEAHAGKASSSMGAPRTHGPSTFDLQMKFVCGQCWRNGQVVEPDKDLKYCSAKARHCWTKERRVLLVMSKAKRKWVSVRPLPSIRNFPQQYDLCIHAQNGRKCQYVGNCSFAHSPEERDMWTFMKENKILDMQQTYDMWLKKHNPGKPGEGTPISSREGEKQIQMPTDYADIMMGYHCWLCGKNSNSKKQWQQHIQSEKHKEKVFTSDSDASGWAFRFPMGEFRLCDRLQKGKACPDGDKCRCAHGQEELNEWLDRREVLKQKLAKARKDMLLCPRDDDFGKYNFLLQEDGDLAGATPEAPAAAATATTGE
# This is one part of the list.
# Assays:
# [1] = target: XPOT_O43592_877_HIVPACFLAPLK (UniProt O43592); assay: probe-labelled cysteine peptide fold change vs DMSO (competition) (log2 fold change); higher = less target engagement (more negative = stronger competition); settings: THP-1, incubation time: 4 h
# [2] = target: ZC3H7B_Q9UGR2_590_CLVHIVR (UniProt Q9UGR2); assay: as above; settings: THP-1, incubation time: 4 h
# 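Also: competitive profiling in live THP-1 cells: cysteine peptides tagged with an iodoacetamide desthiobiotin (IA-DTB) probe, intensity after compound treatment relative to DMSO-treated cells.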
smiles,measurement,setting,value
Cc1cc(C(=O)N2CCCN(C(=O)CCl)CC2)ccc1-c1ccccc1 [compound 10],probe-labelled cysteine peptide fold change,[1]; 10 µM,-0.00347
same,probe-labelled cysteine peptide fold change,[1]; 50 µM,0.308
same,probe-labelled cysteine peptide fold change,[2]; 10 µM,-0.0078
same,probe-labelled cysteine peptide fold change,[2]; 50 µM,-0.0229
